Laboratory results reported in article PMC8301025 (Biology, 2021).
Like-named read-outs stand apart in the source and are kept apart here.

Tested on: T1, CLas GMPS (guanosine 5′-monophosphate synthetase)
T1 construct: gene guaA
Assay type: biochemical, Candidatus Liberibacter asiaticus

| Structure (SMILES) | Km (read-out: Km) [µM] | Km (read-out: Glutamine, Km μM) [µM] |
| --- | --- | --- |
| Nc1ncnc2c1ncn2[C@@H]1O[C@H](COP(=O)(O)OP(=O)(O)OP(=O)(O)O)[C@@H](O)[C@H]1O [ATP] | 258 ± 24.9 | – |
| NC(=O)CC[C@H](N)C(=O)O [glutamine] | – | 215 ± 26.8 |
